Experimental data from the supplement of paper PMC12819154, “High-throughput peptide-centric local stability assay extends protein–ligand identification to membrane proteins, tissues and bacteria” (Nature Structural & Molecular Biology, 2025).
This is one part of the list. Most values lie at the level of the controls, where differences are scatter.

By UniProt entry, the sequences of proteins in these tests, tags left out. Where a name states a change or a piece, a line headed by the entry shows the natural chain unless it says otherwise.
UniProt P12787, whole entry: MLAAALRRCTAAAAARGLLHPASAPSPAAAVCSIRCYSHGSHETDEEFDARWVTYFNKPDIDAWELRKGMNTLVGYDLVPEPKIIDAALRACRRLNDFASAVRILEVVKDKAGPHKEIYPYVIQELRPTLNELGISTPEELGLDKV
UniProt P21614: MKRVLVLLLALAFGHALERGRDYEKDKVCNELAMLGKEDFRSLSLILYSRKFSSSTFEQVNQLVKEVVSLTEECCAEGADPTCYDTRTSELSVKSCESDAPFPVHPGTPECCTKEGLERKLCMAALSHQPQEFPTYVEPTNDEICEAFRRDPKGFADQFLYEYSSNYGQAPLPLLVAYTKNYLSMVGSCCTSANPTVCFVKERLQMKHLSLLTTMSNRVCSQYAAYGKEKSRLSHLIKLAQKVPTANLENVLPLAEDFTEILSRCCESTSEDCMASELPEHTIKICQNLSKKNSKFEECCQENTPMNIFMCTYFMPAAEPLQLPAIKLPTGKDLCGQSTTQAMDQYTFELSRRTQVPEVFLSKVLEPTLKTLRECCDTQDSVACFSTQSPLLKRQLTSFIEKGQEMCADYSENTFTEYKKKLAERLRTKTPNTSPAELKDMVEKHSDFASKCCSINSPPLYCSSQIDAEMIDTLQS
UniProt P04247: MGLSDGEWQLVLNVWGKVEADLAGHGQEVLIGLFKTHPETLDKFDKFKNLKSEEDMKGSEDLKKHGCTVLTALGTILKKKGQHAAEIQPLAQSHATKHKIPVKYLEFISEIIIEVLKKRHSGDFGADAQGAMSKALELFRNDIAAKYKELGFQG
UniProt P22892: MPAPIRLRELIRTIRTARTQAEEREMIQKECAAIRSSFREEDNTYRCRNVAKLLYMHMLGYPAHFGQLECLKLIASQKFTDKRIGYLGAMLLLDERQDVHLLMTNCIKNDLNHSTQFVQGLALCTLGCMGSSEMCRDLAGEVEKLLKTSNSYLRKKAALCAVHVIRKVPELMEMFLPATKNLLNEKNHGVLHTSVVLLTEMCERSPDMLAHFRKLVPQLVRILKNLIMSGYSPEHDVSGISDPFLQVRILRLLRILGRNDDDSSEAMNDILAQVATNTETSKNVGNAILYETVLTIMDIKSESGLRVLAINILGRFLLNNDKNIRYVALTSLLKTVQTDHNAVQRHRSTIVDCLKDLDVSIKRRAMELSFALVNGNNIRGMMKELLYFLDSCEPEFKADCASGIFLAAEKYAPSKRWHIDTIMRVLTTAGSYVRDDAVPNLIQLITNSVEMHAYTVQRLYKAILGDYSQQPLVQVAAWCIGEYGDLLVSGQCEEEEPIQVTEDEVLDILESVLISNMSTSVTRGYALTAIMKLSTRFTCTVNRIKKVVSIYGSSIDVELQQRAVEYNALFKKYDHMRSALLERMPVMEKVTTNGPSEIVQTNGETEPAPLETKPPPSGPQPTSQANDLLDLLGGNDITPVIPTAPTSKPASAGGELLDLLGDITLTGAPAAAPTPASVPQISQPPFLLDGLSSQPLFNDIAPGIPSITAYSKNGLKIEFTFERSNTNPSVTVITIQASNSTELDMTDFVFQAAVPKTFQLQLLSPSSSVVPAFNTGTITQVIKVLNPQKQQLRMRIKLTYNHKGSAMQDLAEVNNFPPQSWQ
UniProt P19221, whole entry: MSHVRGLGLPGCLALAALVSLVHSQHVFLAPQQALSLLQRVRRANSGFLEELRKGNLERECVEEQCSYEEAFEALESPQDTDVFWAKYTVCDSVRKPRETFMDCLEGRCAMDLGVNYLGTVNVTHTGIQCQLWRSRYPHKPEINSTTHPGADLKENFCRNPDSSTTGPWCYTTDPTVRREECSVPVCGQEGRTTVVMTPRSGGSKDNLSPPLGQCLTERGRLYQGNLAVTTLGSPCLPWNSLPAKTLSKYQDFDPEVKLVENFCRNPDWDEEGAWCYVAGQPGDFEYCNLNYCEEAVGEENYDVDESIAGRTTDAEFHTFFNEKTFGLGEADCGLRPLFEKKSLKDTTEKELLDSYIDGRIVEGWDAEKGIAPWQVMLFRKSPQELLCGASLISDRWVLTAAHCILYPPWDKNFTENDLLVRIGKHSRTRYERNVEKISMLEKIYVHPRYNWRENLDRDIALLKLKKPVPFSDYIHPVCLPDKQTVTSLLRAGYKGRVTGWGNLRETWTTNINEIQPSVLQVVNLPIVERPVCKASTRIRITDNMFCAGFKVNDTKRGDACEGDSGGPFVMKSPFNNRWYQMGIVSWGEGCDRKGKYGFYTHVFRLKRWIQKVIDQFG
UniProt P16951: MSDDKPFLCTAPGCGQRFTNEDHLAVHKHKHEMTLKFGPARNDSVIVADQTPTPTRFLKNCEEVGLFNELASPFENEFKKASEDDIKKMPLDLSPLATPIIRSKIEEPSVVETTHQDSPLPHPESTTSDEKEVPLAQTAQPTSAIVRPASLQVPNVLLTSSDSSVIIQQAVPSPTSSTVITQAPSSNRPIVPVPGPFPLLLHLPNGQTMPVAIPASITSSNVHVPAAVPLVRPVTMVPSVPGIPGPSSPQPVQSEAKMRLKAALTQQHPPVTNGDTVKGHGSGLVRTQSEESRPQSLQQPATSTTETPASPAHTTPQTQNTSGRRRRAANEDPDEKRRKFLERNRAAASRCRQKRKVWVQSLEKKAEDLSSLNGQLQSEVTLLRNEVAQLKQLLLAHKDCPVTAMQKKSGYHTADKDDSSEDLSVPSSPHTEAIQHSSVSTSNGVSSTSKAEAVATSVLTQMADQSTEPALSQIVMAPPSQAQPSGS
UniProt P20852: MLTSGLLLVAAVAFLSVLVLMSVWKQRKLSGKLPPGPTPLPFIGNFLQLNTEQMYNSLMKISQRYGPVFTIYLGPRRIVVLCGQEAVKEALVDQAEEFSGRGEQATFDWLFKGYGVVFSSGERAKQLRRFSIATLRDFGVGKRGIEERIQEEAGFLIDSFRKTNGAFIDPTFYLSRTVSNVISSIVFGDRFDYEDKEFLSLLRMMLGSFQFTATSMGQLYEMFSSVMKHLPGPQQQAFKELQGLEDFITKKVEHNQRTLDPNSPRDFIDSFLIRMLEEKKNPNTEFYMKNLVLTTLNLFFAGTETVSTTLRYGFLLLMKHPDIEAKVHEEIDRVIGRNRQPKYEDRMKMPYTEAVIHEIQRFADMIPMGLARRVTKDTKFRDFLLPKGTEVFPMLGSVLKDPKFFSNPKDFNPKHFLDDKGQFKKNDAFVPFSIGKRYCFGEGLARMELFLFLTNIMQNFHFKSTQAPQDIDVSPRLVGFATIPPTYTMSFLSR
UniProt P16125, whole entry: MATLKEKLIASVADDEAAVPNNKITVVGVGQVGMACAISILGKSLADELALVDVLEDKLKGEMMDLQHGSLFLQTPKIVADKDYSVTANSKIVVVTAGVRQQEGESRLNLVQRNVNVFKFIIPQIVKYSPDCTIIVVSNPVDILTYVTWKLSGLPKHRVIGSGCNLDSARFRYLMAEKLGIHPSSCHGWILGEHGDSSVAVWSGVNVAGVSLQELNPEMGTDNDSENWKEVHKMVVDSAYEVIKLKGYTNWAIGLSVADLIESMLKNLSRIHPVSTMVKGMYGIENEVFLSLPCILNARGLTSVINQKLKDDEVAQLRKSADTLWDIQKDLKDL
UniProt P06537: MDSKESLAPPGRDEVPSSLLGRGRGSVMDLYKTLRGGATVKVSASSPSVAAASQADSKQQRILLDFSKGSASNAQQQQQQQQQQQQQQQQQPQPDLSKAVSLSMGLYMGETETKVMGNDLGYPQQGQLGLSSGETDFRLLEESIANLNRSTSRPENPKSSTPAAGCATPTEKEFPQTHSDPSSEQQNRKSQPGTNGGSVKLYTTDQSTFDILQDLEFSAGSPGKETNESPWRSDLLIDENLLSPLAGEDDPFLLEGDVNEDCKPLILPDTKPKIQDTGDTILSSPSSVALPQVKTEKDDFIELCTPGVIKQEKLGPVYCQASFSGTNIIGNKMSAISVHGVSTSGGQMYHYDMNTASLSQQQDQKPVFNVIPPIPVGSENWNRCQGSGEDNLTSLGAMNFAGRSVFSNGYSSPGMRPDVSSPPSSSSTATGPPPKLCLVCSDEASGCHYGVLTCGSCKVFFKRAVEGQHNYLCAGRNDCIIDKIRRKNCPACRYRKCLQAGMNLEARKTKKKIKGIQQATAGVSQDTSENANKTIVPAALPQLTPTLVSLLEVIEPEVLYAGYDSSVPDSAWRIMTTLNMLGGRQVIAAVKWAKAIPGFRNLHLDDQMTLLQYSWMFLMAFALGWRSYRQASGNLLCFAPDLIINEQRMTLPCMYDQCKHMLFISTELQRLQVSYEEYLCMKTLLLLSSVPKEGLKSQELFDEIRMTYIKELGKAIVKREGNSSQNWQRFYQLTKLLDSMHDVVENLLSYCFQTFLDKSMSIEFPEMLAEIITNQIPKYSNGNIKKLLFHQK
UniProt P22907: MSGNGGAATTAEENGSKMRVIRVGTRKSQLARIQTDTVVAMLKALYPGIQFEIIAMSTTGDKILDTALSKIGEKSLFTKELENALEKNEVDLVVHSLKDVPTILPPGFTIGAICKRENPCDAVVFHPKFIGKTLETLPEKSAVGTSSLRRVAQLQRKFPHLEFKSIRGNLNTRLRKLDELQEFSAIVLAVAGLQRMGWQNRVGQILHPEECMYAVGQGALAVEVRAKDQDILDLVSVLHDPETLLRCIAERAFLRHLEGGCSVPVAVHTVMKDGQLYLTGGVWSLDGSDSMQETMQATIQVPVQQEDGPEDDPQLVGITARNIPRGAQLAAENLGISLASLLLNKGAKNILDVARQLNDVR
UniProt P17427, whole entry: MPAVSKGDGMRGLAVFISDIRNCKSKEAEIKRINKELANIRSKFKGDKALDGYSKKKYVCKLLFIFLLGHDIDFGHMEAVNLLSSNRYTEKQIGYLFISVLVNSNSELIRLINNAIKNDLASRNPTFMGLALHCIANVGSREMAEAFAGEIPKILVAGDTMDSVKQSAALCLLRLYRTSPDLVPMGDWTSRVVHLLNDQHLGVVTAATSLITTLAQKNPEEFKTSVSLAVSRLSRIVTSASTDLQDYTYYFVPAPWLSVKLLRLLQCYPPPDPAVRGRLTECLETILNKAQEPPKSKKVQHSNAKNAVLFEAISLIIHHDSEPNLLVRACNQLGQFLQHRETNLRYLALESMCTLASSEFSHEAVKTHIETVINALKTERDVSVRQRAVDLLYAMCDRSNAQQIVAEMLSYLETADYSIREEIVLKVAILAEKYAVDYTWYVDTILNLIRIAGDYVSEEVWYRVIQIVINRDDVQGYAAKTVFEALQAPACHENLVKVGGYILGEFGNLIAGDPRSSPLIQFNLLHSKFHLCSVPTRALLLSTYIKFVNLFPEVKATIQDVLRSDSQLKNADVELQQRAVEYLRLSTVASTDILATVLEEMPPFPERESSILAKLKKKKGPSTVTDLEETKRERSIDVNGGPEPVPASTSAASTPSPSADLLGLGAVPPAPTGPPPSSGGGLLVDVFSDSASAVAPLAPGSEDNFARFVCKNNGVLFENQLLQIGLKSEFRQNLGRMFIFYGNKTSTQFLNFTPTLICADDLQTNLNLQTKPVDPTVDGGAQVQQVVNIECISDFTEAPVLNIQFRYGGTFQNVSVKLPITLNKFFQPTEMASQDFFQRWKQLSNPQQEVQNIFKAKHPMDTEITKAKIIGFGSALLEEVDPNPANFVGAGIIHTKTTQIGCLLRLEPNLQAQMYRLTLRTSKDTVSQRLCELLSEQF
UniProt P07361: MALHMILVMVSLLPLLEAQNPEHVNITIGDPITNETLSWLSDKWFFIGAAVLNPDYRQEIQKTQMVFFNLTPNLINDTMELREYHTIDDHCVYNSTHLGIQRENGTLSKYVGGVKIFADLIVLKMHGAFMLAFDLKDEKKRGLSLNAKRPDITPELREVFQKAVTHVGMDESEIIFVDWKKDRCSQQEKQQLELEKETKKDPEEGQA
UniProt P0DJE0: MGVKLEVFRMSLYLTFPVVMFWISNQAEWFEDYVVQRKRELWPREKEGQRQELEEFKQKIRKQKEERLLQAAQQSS
UniProt P17751: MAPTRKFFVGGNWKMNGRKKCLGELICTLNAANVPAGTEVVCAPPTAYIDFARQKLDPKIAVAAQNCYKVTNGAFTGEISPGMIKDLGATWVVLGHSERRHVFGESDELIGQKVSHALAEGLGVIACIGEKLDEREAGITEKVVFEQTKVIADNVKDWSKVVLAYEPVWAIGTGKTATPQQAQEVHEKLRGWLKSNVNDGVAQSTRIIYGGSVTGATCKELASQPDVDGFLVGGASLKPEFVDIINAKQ
UniProt P23881: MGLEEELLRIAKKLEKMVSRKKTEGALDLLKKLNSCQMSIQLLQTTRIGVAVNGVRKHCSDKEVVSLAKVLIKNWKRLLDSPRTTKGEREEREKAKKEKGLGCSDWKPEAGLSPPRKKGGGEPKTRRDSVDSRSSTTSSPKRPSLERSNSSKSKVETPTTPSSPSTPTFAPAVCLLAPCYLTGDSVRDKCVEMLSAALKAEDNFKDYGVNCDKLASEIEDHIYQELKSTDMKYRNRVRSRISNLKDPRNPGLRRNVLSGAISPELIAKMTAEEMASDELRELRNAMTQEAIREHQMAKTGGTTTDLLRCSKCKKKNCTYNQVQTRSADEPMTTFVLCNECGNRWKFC

The targets below were run with CN[C@@H]1C[C@H]2O[C@@](C)([C@@H]1OC)n1c3ccccc3c3c4c(c5c6ccccc6n2c5c31)C(=O)NC4 [staurosporine] (assay: log2 fold change of pooled soluble protein (PISA), ligand vs vehicle (log2 ratio); higher = more thermally stabilized). Conditions: ligand concentration: 20 uM; assay format: PISA pool 52.9/55.5/58.6 C.

Target	log2 fold change of pooled soluble protein
UniProt P17182	-0.0921
UniProt P13595	-0.0759
UniProt P26638	-0.111
UniProt P27046	0.028
UniProt P20060	0.0472
UniProt P15920	-0.0799
UniProt P09528	-0.16
UniProt P12787	-0.125
UniProt P12025	0.108
UniProt P21614	-0.185
UniProt P04247	-0.322
UniProt P27641	0.182
UniProt P22892	0.0719
UniProt P19221	0.12
UniProt P16951	0.104
UniProt P20852	-0.138
UniProt P17918	-0.0213
UniProt P04627	-0.0457
UniProt P16125	-0.0128

Random excerpt: 2 entries already listed.
Target	log2 fold change of pooled soluble protein
UniProt P27046	0.028
UniProt P09528	-0.16

(listing goes on)

Target	log2 fold change of pooled soluble protein
UniProt P13439	-0.18
UniProt P0CG14	-0.06
UniProt P27659	-0.112
UniProt P22599	0.0282
UniProt P07214	0.291
UniProt P13634	-0.0641
UniProt P06537	0.0166
UniProt P22907	-0.243
UniProt P21279	-0.207
UniProt P10518	-0.0043
UniProt P17427	0.0356
UniProt P07361	0.068
UniProt P28078	0.268
UniProt P03987	-0.104
UniProt P0DJE0	-0.0568
UniProt P17156	-0.64
UniProt P17751	-0.0215
UniProt P23881	0.225
